Experimental findings from PMC8126888 (RSC Medicinal Chemistry, 2020) are described below.

This data set concerns Leishmania infantum MHOM/MA(BE)/67/ITMAP263 intracellular amastigotes. The conditions noted are these: selectivity index vs PMM.

Consider `COc1ccc(C(=O)N2CCOCC2)cc1S(=O)(=O)N(Cc1ccccc1)Cc1ccccc1` [DNDI0003368296], for which the “SI (vs PMM)” value is listed as 99. As for `COc1ccc(OC)c(S(=O)(=O)N(Cc2ccccc2)C2CCCN(C(C)=O)C2)c1` (stereo not drawn) [DNDI0003367307], the “SI (vs PMM)” value is on record as 1. For the compound `O=S1(=O)c2ccccc2OCC(Cc2ccccc2)N1Cc1ccccc1` (stereo not drawn) [DNDI0003370081], the “SI (vs PMM)” value is on record as 1. Next, `COc1ncccc1S(=O)(=O)N(Cc1ccccc1)Cc1ccccc1` [DNDI0003368299]: 100; `COc1ncc(C#N)cc1S(=O)(=O)N(Cc1ccc(F)cc1)Cc1ccc(F)cc1` [DNDI0003369123]: 8; `COc1ccc(Cl)cc1S(=O)(=O)N(CC(=O)c1ccc(F)cc1)Cc1ccccc1` [DNDI0003371155]: 1. As to `[2H]C([2H])([2H])Oc1ncccc1S(=O)(=O)N(Cc1ccc(F)cc1)Cc1ccc(F)cc1` [DNDI0003371166], the “SI (vs PMM)” value stood at 2. In the case of `O=S(=O)(c1cc(F)ccc1F)N(Cc1ccc(F)cc1)Cc1ccc(F)cc1` [DNDI0003371158], the “SI (vs PMM)” value came out at 1. Consider `O=S(=O)(NC(CO)Cc1ccccc1)c1ccccc1Br` (stereo not drawn) [DNDI0003369449], for which the “SI (vs PMM)” value is given as 1. The same measure for `O=S1(=O)NC(Cc2ccccc2)COc2ccc(F)cc21` (stereo not drawn) [DNDI0003368460]: 1; for `O=c1[nH]cccc1S(=O)(=O)N(Cc1ccc(F)cc1)Cc1ccc(F)cc1` [DNDI0003371165]: 1; for `COc1ccc(OC)c(S(=O)(=O)N(Cc2ccc(F)cc2)Cc2ncccn2)c1` [DNDI0003370419]: 5.

For `COc1ccc(OC)c(S(=O)(=O)N(Cc2ncccn2)Cc2ncccn2)c1` [DNDI0003370115], the “SI (vs PMM)” value was 1.

`CCCCOc1ncccc1S(=O)(=O)NCc1ccc(F)cc1` [DNDI0003368396]: the “SI (vs PMM)” value stood at 7.

For the compound `O=S(=O)(NCc1ccc(F)cc1)c1cccnc1OCc1ccccc1` [DNDI0003369120], the “SI (vs PMM)” value was 4. Turning to `CN(C)CCN(Cc1ccccc1)S(=O)(=O)c1ccccc1OC(F)(F)F` [DNDI0003367256], the “SI (vs PMM)” value worked out at 5. As for `COC(=O)C(Cc1ccccc1)NS(=O)(=O)c1ccccc1Br` (stereo not drawn) [DNDI0003369003], the “SI (vs PMM)” value stood at 1. Take `COc1ccc(C(=O)N2CCCC2)cc1S(=O)(=O)N(Cc1ccccc1)Cc1ccccc1` [DNDI0003368297]: the “SI (vs PMM)” value came out at 66.

`COc1ccc(OC)c(S(=O)(=O)N(Cc2ccc(F)cc2)c2ccc(F)cn2)c1` [DNDI0003370085]: the “SI (vs PMM)” value turned out to be 2. For the compound `O=S(=O)(NC(CO)Cc1ccccc1)c1cc(F)ccc1F` (stereo not drawn) [DNDI0003368459], the “SI (vs PMM)” value is on record as 1. As for `O=S(=O)(NCc1ccc(F)cc1)c1cccnc1NCCN1CCOCC1` [DNDI0003369121], the “SI (vs PMM)” value came out at 1. In the case of `O=C1c2ccccc2S(=O)(=O)N(Cc2ccccc2)C1Cc1ccccc1` (stereo not drawn) [DNDI0003370098], the “SI (vs PMM)” value stood at 5.

As to `CN(C)CCN(Cc1ccccc1)S(=O)(=O)c1ccc(N)cc1` [DNDI0003368290], the “SI (vs PMM)” value is 1. Consider `CN(C)CCOc1ccc(F)cc1S(=O)(=O)N(Cc1ccc(F)cc1)Cc1ccc(F)cc1` [DNDI0003371161], for which the “SI (vs PMM)” value came out at 4. On to `COc1ccc(OC)c(S(=O)(=O)N(Cc2ccc(F)cc2)Cc2oc(C)nc2C)c1` [DNDI0003370420], for which the “SI (vs PMM)” value is 27. Next, `O=S(=O)(c1cccnc1OC(F)F)N(Cc1ccc(F)cc1)Cc1ccc(F)cc1` [DNDI0003371167]: 7; `Nc1ncccc1S(=O)(=O)N(Cc1ccc(F)cc1)Cc1ccc(F)cc1` [DNDI0003371163]: 1.

On to `O=S(=O)(c1cc(F)ccc1F)N(Cc1ccccc1)C(CO)CO` [DNDI0003369448], for which the “SI (vs PMM)” value is on record as 1. For the compound `CCOCCOc1ncccc1S(=O)(=O)NCc1ccc(F)cc1` [DNDI0003369119], the “SI (vs PMM)” value is given as 2.

For the compound `COc1ccc(OC)c(S(=O)(=O)N(CCN2CCOCC2)Cc2ccccc2)c1` [DNDI0003368294], the “SI (vs PMM)” value was 7.
